# Experimental data reported in the supplement of paper PMC9549374.
# This is one part of the list. No stated cut-off is given here; in the data, active = 2-fold of DMSO or more and inactive = the rest. Single values of this set are uncertain. Some low values are a fixed figure set by the source, not a measured ratio.
# System: CM7/1-hgem mouse ES cell-derived cardiomyocytes
# Assay: maximal number of mAG-hGem(1/110)-positive cardiomyocytes over 96 h, fold-change vs DMSO; higher = more cardiomyocyte cell cycle activity
# Settings: 1 µM; 96 (max over 12 h time points) h
row,Structure (SMILES),maximal number
1,COc1cc2c(cc1OC)-c1c(oc3c4c(ccc3c1=O)OC(C(C)C)C4)CO2 (configuration not stated),inactive: 1
2,O=C1C=C2C=C[C@@H]3C[C@@]2(O1)[C@H]1CCCCN31,inactive: 1
3,Cc1cccc(C)c1NC(=O)CN1CCCC1=O,inactive: 1
4,CO[C@H]1[C@H](O)[C@H](O[C@H]2CC[C@@]3(C=O)[C@H](CC[C@@H]4[C@@H]3CC[C@]3(C)[C@@H](C5=CC(=O)OC5)CC[C@]43O)C2)O[C@@H](C)[C@@H]1O,active: 4
5,CC(O)CN1CCN(CC(=O)[O-])CCN(CC(=O)[O-])CCN(CC(=O)[O-])CC1.[Gd+3] (configuration not stated),inactive: 1
6,N#C/C(=C\c1cccc(O)c1)C(=O)O [alpha-CYANO-3-HYDROXYCINNAMIC ACID],inactive: 1
7,OC[C@@H]1CCCN2CCCC[C@H]12,inactive: 1
8,CC1CC(Cl)CCC1C(=O)OC(C)(C)C (configuration not stated),inactive: 1
9,C[C@H]1C(=O)O[C@@H]2CCN3CC=C(COC(=O)[C@](C)(O)[C@]1(C)O)[C@H]23,inactive: 0
10,C[C@]12CCC(=O)C=C1C=C[C@@H]1[C@@H]2CC[C@@]2(C)[C@H]1CC[C@@]2(O)CCC(=O)O,inactive: 1
11,COc1cc(OC)c(OC)cc1C=O,inactive: 1
12,CC(C)=CC1C(C(=O)OCc2cccc(Oc3ccccc3)c2)C1(C)C (configuration not stated),inactive: 1
13,COc1cc2ccc(=O)oc2c2ccoc12,inactive: 0
14,CC1(C)C(C=C(Cl)Cl)C1C(=O)OC(C#N)c1cccc(Oc2ccccc2)c1 (configuration not stated),inactive: 1
15,C/C=C(\C)C(=O)O[C@H]1C[C@@H](OC(C)=O)[C@@]2(C(=O)OC)CO[C@H]3[C@@H](O)[C@@](C)([C@]45O[C@@]4(C)[C@H]4C[C@@H]5O[C@@H]5OC=C[C@@]54O)[C@H]4[C@]1(CO[C@]4(O)C(=O)OC)[C@@H]32,inactive: 1
16,C=C(C)[C@@H]1[C@H]2OC(=O)[C@@H]1[C@]1(O)C[C@H]3O[C@]34C(=O)O[C@H]2[C@]14C,inactive: 1

# Gathered by group, the entries above with a halogen (2)
row,Structure (SMILES),maximal number
8,CC1CC(Cl)CCC1C(=O)OC(C)(C)C (configuration not stated),inactive: 1
14,CC1(C)C(C=C(Cl)Cl)C1C(=O)OC(C#N)c1cccc(Oc2ccccc2)c1 (configuration not stated),inactive: 1

# The list continues:

row,Structure (SMILES),maximal number
1,CC[C@@]1(O)C(=O)OCc2c1cc1n(c2=O)Cc2cc3ccccc3nc2-1,inactive: 1
2,O=C(N/N=C/c1ccc([N+](=O)[O-])o1)c1cc([N+](=O)[O-])cc([N+](=O)[O-])c1O,inactive: 1
3,CC(=O)OC1CCC23C(=O)OC45CCC(C6=CC(=O)OC6)C4(C)CCC2C5CCC3(O)C1 (configuration not stated),inactive: 0
4,N#Cc1nn(-c2c(Cl)cc(C(F)(F)F)cc2Cl)c(N)c1[S+]([O-])C(F)(F)F (configuration not stated),inactive: 1
5,COc1cc2c(cc1OC)[C@@H]1C(=O)c3ccc4c(c3O[C@@H]1CO2)CC(C(C)C)O4 (some centres not stated),inactive: 0.5
6,C[C@]12CCC(=O)C(O)=C1CC[C@@H]1[C@@H]2CC[C@]2(C)C(=O)CC[C@@H]12,inactive: 1
7,Cc1nccc2c1[nH]c1cc(O)ccc12,inactive: 1
8,CC1=NCCc2c1[nH]c1cc(O)ccc21,inactive: 1
9,CC(=O)O[C@H]1C[C@@H](OC(C)=O)C(C)(C)C2C[C@@H](OC(C)=O)[C@]3(C)C(CC[C@@]4(C)[C@H](c5ccoc5)C(=O)[C@H]5O[C@]543)[C@]21C (some centres not stated),inactive: 1
10,"C[C@]12CCC(=O)C[C@@H]1CC[C@@H]1[C@@H]2CC[C@]2(C)C(=O)CC[C@@H]12 [5alpha-ANDROSTAN-3,17-DIONE]",inactive: 1
11,CN1[C@H]2C[C@H](OC(=O)[C@H](CO)c3ccccc3)C[C@@H]1[C@@H](O)C2,inactive: 1
12,C[C@@H]1O[C@@H](O[C@H]2CC[C@]3(C=O)[C@H]4CC[C@]5(C)[C@@H](C6=CC(=O)OC6)CC[C@]5(O)[C@@H]4CC[C@]3(O)C2)[C@H](O)[C@H](O)[C@H]1O,active: 4
13,C[C@@H](N)[C@@H](O)c1ccccc1,inactive: 1
14,O=c1cccc2n1C[C@@H]1CNC[C@H]2C1,inactive: 1
15,CC(=O)OC1CN2CCC1CC2 (configuration not stated),inactive: 1
16,CC1(C)C(=O)C=C[C@]2(C)[C@H]3CC[C@@]4(C)[C@H](c5ccoc5)OC(=O)[C@H]5O[C@]54[C@]3(C)[C@H](O)C[C@@H]12,inactive: 0.5
